For six molecules, binding results are on record in patent EP4660202A1.

The assay concerns the target T1, Lrig-1 protein present on the surface of L cells (human-derived Lrig-1 protein) (human) (UniProt Q96JA1).
T1 sequence: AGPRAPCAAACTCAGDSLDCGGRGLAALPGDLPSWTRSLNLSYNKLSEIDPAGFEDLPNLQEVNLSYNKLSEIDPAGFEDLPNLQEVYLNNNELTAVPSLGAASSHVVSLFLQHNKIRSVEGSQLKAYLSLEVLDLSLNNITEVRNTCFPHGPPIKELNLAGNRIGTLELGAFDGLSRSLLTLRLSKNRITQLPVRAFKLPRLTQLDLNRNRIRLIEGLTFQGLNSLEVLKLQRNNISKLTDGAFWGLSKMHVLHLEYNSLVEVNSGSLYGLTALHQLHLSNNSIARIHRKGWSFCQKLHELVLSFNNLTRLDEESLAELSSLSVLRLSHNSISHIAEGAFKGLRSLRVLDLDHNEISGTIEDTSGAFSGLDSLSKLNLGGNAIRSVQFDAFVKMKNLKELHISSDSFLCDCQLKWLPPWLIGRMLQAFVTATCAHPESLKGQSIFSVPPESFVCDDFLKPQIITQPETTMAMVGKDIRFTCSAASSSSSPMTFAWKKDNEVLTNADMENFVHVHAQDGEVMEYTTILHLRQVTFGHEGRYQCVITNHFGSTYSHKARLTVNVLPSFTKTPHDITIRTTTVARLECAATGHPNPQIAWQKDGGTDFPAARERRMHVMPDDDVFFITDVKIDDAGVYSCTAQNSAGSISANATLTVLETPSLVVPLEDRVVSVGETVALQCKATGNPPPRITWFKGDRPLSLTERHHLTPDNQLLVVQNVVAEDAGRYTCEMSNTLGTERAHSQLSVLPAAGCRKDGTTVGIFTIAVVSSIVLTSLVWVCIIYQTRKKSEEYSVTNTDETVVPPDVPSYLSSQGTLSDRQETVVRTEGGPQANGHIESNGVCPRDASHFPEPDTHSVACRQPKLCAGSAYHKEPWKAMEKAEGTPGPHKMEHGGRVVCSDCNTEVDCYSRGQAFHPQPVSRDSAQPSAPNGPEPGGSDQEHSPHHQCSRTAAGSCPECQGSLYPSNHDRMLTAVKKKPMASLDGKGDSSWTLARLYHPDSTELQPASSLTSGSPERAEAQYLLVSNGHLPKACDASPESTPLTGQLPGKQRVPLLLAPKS
In words: FACS on L cells stably expressing Lrig-1, eFlour 670-conjugated secondary antibody.

Substitutions are numbered along the chain they refer to. These are yes or no findings as the source states them, for the method shown. Some results given as binding are weak or reduced against the parent protein; the word gives no strength.

B1: GTC210-01 clone (antibody, mouse IgG2a, V domains shown)
VH: EVQLLESGGGLVQPGGSLRLSCAASGFTFSGYDMSWVRQAPGKGLEWVSLIYPDSGNKYYADSVKGRFTISRDNSKNTLYLQMNSLRAEDTAVYYCARDAGLSWAGAFDYWGQGTLVTVSS
VL: QSVLTQPPSASGTPGQRVTISCSGSSSNIGSNYVTWYQQLPGTAPKLLIYSDSHRPSGVPDRFSGSKSGTSASLAISGLQSEDEADYYCGSWDYSLSAYVFGGGTKLTVLR
As to B1, the binding entry is listed as “binds”.

B2: GTC110-03 clone (antibody, mouse IgG2a, V domains shown)
VH: EVQLLESGGGLVQPGGSLRLSCAASGFTFSNYAMSWVRQAPGKGLEWVSAIYPGGGSIYYADSVKGRFTISRDNSKNTLYLQMNSLRAEDTAVYYCARDILPCPWGRCYYDYAMDVWGQGTLVTVSS
VL: B1 VL with G24D, Y33T, T35S, S51A, S53N, H54N, Q80R, S91T, A98G
B2: the binding result was “binds”.

B3: GTC110-02 clone (antibody, mouse IgG2a, V domains shown)
VH: EVQLLESGGGLVQPGGSLRLSCAASGFTFSDYYMSWVRQAPGKGLEWVSGISHDSGSKYYADSVKGRFTISRDNSKNTLYLQMNSLRAEDTAVYYCARHWTTFDYWGQGTLVTVSS
VL: B1 VL with Y33N, S51A, D52N, H54N, Q80R, S91A
On to B3, for which the binding entry is on record as “binds”.

B4: GTC210-02 clone (antibody, mouse IgG2a, V domains shown)
VH: EVQLLESGGGLVQPGGSLRLSCAASGFTFSNYYMSWVRQAPGKGLEWVSGISPGDSSTYYADSVKGRFTISRDNSKNTLYLQMNSLRAEDTAVYYCAKGLYSNPNEPFDYWGQGTLVTVSS
VL: B1 VL with S23T, T35S, S51D, H54Q, Q80R, S91T, S97N, A98G
As to B4, the binding result was “binds”.

B5: GTC210-03 clone (antibody, mouse IgG2a, V domains shown)
VH: EVQLLESGGGLVQPGGSLRLSCAASGFTFSSYDMSWVRQAPGKGLEWVSGISPDGSNIYYADSVKGRFTISRDNSKNTLYLQMNSLRAEDTAVYYCAKVGLRCRYEACSYAYGMDVWGQGTLVTVSS
VL: B1 VL with T35S, Q80R, G90A, S91T, Y94S, S97N, A98G
B5: the binding entry was “binds”.

B6: GTC210-04 clone (antibody, mouse IgG2a, V domains shown)
VH: EVQLLESGGGLVQPGGSLRLSCAASGFTFSNYDMSWVRQAPGKGLEWVSSISPSSGSIYYADSVKGRFTISRDNSKNTLYLQMNSLRAEDTAVYYCAKDLDAFWRPSFDYWGQGTLVTVSS
VL: B1 VL with S23T, S31N, Y33N, T35N, Q80R, Y94D
Turning to B6, the binding result is listed as “binds”.
